Laboratory results published in patent US11046659B2, “1,2,3-triazole derivative and insecticide and acaricide containing said derivative as active ingredient” (HOKKO CHEMICAL INDUSTRY CO., LTD., priority 2015, dated 2021).
Some of these results come from one statement about several compounds together. For some of these results: At least one compound was matched to its structure with a doubt left.

Experiments:
Type in all cases: in vivo
Nilaparvata lugens = Nilaparvata lugens control test; conditions: diluted emulsifiable concentrate 500 ppm sprayed on rice seedlings; fourth instar larvae; five days after the release; 25° C.
Spodoptera litura = Spodoptera litura control test; conditions: diluted emulsifiable concentrate 500 ppm sprayed on cabbage seedlings; second instar larvae; four days after the release; 25° C.
Aphis craccivora = Aphis craccivora control test; conditions: diluted emulsifiable concentrate 500 ppm sprayed on broad bean seedlings; apterous adults; four days after the treatment; 25° C.

Row | Structure (SMILES) | mortality rate (Nilaparvata lugens) | mortality rate (Spodoptera litura) | preventive value (Aphis craccivora)
1 | CC[S+]([O-])c1ccccc1-n1cc(-c2cc(C(=O)OC)cc(C(F)(F)F)c2)nn1 (racemic) [1-488] | ≥ 80% |  | 
2 | CC[S+]([O-])c1ccccc1-n1cc(-c2ccncc2)nn1 (racemic) [4-25] | ≥ 80% | ≥ 80% | 
3 | CCSc1ccccc1-n1cc(-c2cccc(C(F)(F)F)c2)nn1 [1-26, 1-(2-ethylsulfanylphenyl)-4-[3-(trifluoromethyl)phenyl]triazole] |  |  | ≥ 80%
4 | CCSc1ccccc1-n1cc(-c2ccc(C#N)cc2)nn1 [1-56] | ≥ 80% |  | 
5 | CCOC(=O)c1c(-c2cc(C(F)(F)F)cc(C(F)(F)F)c2)nnn1-c1ccccc1SCC [1-83] | ≥ 80% | ≥ 80% | 
6 | CCSc1ccccc1-n1cc(-c2cc(C(F)(F)F)ccc2F)nn1 [1-275] |  |  | ≥ 80%
7 | CCS(=O)(=O)c1ccccc1-n1cc(-c2ccc(Cl)cc2)nn1 [1-578] | ≥ 80% |  | 
8 | CC[S+]([O-])c1cc(I)ccc1-n1cc(-c2ccc(Cl)c(C(F)(F)F)c2)nn1 (stereo not shown) [1-860] |  | ≥ 80% | 
9 | CC[S+]([O-])c1cc(OC(F)(F)F)ccc1-n1cc(-c2ccc(Cl)c(C(F)(F)F)c2)nn1 (stereo not shown) [1-862] |  | ≥ 80% | 
10 | CCS(=O)(=O)c1cc(I)ccc1-n1cc(-c2ccc(Cl)c(C(F)(F)F)c2)nn1 [1-867] |  | ≥ 80% | 
11 | CCS(=O)(=O)c1cc(OC(F)(F)F)ccc1-n1cc(-c2ccc(Cl)c(C(F)(F)F)c2)nn1 [1-869] |  | ≥ 80% | 
12 | CCSc1cc(I)ccc1-n1cc(-c2nc(C(F)(F)F)cc(C(F)(F)F)c2C#N)nn1 [2-30] |  | ≥ 80% | 
13 | CCSc1cc(OC(F)(F)F)ccc1-n1cc(-c2nc(C(F)(F)F)cc(C(F)(F)F)c2C#N)nn1 [2-32] |  | ≥ 80% | 
14 | CCSc1cc(S(F)(F)(F)(F)F)ccc1-n1cc(-c2nc(C(F)(F)F)cc(C(F)(F)F)c2C#N)nn1 [2-33] |  | ≥ 80% | 
15 | CCSc1ccccc1-n1cc(-c2cc(C(F)(F)F)ccn2)nn1 [2-91] |  | ≥ 80% | ≥ 80%
16 | CCSc1cc(Cl)ccc1-n1cc(-c2cc(C(F)(F)F)ccn2)nn1 [2-96] |  | ≥ 80% | 
17 | CCSc1ccc(Cl)cc1-n1cc(-c2cc(C(F)(F)F)ccn2)nn1 [2-97] |  | ≥ 80% | 
18 | CCSc1cc(F)ccc1-n1cc(-c2cc(C(F)(F)F)ccn2)nn1 [2-99] |  | ≥ 80% | 
19 | CCSc1cc(Br)ccc1-n1cc(-c2cc(C(F)(F)F)ccn2)nn1 [2-100] |  | ≥ 80% | ≥ 80%
20 | CCSc1cc(I)ccc1-n1cc(-c2cc(C(F)(F)F)ccn2)nn1 [2-102] |  | ≥ 80% | 
21 | CCSc1cc(C(F)(F)F)ccc1-n1cc(-c2cc(C(F)(F)F)ccn2)nn1 [2-107] |  | ≥ 80% | 
22 | CCSc1cc(OC(F)(F)F)ccc1-n1cc(-c2cc(C(F)(F)F)ccn2)nn1 [2-112] |  | ≥ 80% | 

Row | Structure (SMILES) | mortality rate (Nilaparvata lugens) | mortality rate (Spodoptera litura) | preventive value (Aphis craccivora)
23 | CCSc1cc(SC(F)(F)F)ccc1-n1cc(-c2cc(C(F)(F)F)ccn2)nn1 [2-113] |  | ≥ 80% | 
24 | CCSc1cc(C2CC2)ccc1-n1cc(-c2cc(C(F)(F)F)ccn2)nn1 [2-127] |  | ≥ 80% | 
25 | CCSc1cc(C(F)(F)F)ccc1-n1nnc(-c2cc(C(F)(F)F)ccn2)c1C [2-134] |  | ≥ 80% | 
26 | CCSc1cc(OC(F)(F)F)ccc1-n1nnc(-c2cc(C(F)(F)F)ccn2)c1C [2-135] |  | ≥ 80% | 
27 | CCSc1ccccc1-n1cc(-c2cc(C(F)(F)C(F)(F)F)ccn2)nn1 [2-140] |  | ≥ 80% | ≥ 80%
28 | CCSc1cc(I)ccc1-n1cc(-c2cc(C(F)(F)C(F)(F)F)ccn2)nn1 [2-143] |  | ≥ 80% | 
29 | CCSc1cc(OC(F)(F)F)ccc1-n1cc(-c2cc(C(F)(F)C(F)(F)F)ccn2)nn1 [2-145] |  | ≥ 80% | 
30 | CCSc1ccccc1-n1cc(-c2ccc(C(F)(F)F)cn2)nn1 [2-147] | ≥ 80% | ≥ 80% | 
31 | CCS(=O)(=O)c1cc(I)ccc1-n1cc(-c2cc(C(F)(F)F)cc(C(F)(F)F)n2)nn1 [2-297] |  | ≥ 80% | 
32 | CCS(=O)(=O)c1cc(OC(F)(F)F)ccc1-n1cc(-c2cc(C(F)(F)F)cc(C(F)(F)F)n2)nn1 [2-299] |  | ≥ 80% | 
33 | CCS(=O)(=O)c1cc(OC(F)(F)F)ccc1-n1cc(-c2nc(C(F)(F)F)cc(C(F)(F)F)c2C#N)nn1 [2-311] |  | ≥ 80% | 
34 | CCS(=O)(=O)c1cc(S(F)(F)(F)(F)F)ccc1-n1cc(-c2nc(C(F)(F)F)cc(C(F)(F)F)c2C#N)nn1 [2-312] |  | ≥ 80% | 
35 | CCS(=O)(=O)c1cc(Br)ccc1-n1cc(-c2cc(C(F)(F)F)c(Cl)cn2)nn1 [2-322] |  | ≥ 80% | 
36 | CCS(=O)(=O)c1cc(I)ccc1-n1cc(-c2cc(C(F)(F)F)c(Cl)cn2)nn1 [2-323] |  | ≥ 80% | 
37 | CCS(=O)(=O)c1cc(OC(F)(F)F)ccc1-n1cc(-c2cc(C(F)(F)F)c(Cl)cn2)nn1 [2-325] |  | ≥ 80% | 
38 | CCS(=O)(=O)c1cc(Br)ccc1-n1cc(-c2cc(C(F)(F)F)cc(Cl)n2)nn1 [2-329] |  | ≥ 80% | 
39 | CCS(=O)(=O)c1cc(I)ccc1-n1cc(-c2cc(C(F)(F)F)cc(Cl)n2)nn1 [2-330] |  | ≥ 80% | 
40 | CCS(=O)(=O)c1cc(OC(F)(F)F)ccc1-n1cc(-c2cc(C(F)(F)F)cc(Cl)n2)nn1 [2-332] |  | ≥ 80% | 
41 | CCS(=O)(=O)c1cc(I)ccc1-n1cc(-c2cc(C(F)(F)F)cc(Br)n2)nn1 [2-351] |  | ≥ 80% | 
42 | CCS(=O)(=O)c1cc(OC(F)(F)F)ccc1-n1cc(-c2cc(C(F)(F)F)cc(Br)n2)nn1 [2-353] |  | ≥ 80% | 
43 | CCS(=O)(=O)c1cc(OC(F)(F)F)ccc1-n1cc(-c2cc(C(F)(F)F)cc(C#N)n2)nn1 [2-367] |  | ≥ 80% | 
44 | CCS(=O)(=O)c1ccccc1-n1cc(-c2cc(C(F)(F)F)ccn2)nn1 [2-370] |  | ≥ 80% | ≥ 80%

Row | Structure (SMILES) | mortality rate (Nilaparvata lugens) | mortality rate (Spodoptera litura) | preventive value (Aphis craccivora)
45 | CCS(=O)(=O)c1c(Cl)cccc1-n1cc(-c2cc(C(F)(F)F)ccn2)nn1 [2-374] |  | ≥ 80% | 
46 | CCS(=O)(=O)c1cc(Cl)ccc1-n1cc(-c2cc(C(F)(F)F)ccn2)nn1 [2-375] |  | ≥ 80% | ≥ 80%
47 | CCS(=O)(=O)c1ccc(Cl)cc1-n1cc(-c2cc(C(F)(F)F)ccn2)nn1 [2-376] |  | ≥ 80% | 
48 | CCS(=O)(=O)c1cccc(Cl)c1-n1cc(-c2cc(C(F)(F)F)ccn2)nn1 [2-377] |  | ≥ 80% | 
49 | CCS(=O)(=O)c1cc(F)ccc1-n1cc(-c2cc(C(F)(F)F)ccn2)nn1 [2-378] |  | ≥ 80% | 
50 | CCS(=O)(=O)c1cc(Br)ccc1-n1cc(-c2cc(C(F)(F)F)ccn2)nn1 [2-379] |  | ≥ 80% | ≥ 80%
51 | CCS(=O)(=O)c1cc(I)ccc1-n1cc(-c2cc(C(F)(F)F)ccn2)nn1 [2-381] |  | ≥ 80% | 
52 | CCS(=O)(=O)c1cc(C(F)(F)F)ccc1-n1cc(-c2cc(C(F)(F)F)ccn2)nn1 [2-386] |  | ≥ 80% | 
53 | CCS(=O)(=O)c1cc(C(F)(C(F)(F)F)C(F)(F)F)ccc1-n1cc(-c2cc(C(F)(F)F)ccn2)nn1 [2-388] |  | ≥ 80% | 
54 | CCS(=O)(=O)c1cc(C(C(F)(F)F)C(F)(F)F)ccc1-n1cc(-c2cc(C(F)(F)F)ccn2)nn1 [2-389] |  | ≥ 80% | 
55 | CCS(=O)(=O)c1cc(OC(F)(F)F)ccc1-n1cc(-c2cc(C(F)(F)F)ccn2)nn1 [2-392] |  | ≥ 80% | 
56 | CCS(=O)(=O)c1cc(SC(F)(F)F)ccc1-n1cc(-c2cc(C(F)(F)F)ccn2)nn1 [2-393] |  | ≥ 80% | 
57 | CCS(=O)(=O)c1cc(OS(=O)(=O)C(F)(F)F)ccc1-n1cc(-c2cc(C(F)(F)F)ccn2)nn1 [2-397] |  | ≥ 80% | 
58 | CCS(=O)(=O)c1cc(S(F)(F)(F)(F)F)ccc1-n1cc(-c2cc(C(F)(F)F)ccn2)nn1 [2-398, [3-ethyl sulfonyl-4-[4-[4-(trifluoromethyl)-2-pyridyl]triazol-1-yl]phenyl]-pentafluoro-λ^6-sulfane] |  | ≥ 80% | 
59 | CCS(=O)(=O)c1c(-n2cc(-c3cc(C(F)(F)F)ccn3)nn2)ccc(Cl)c1Cl [2-401] |  | ≥ 80% | 
60 | CCS(=O)(=O)c1c(-n2cc(-c3cc(C(F)(F)F)ccn3)nn2)ccc(Br)c1Cl [2-402] |  | ≥ 80% | 
61 | CCSc1ccccc1-n1cc(-c2cccnc2)nn1 [3-14] | ≥ 80% | ≥ 80% | 
62 | CCSc1ccccc1-n1cc(-c2cncc(C(F)(F)F)c2)nn1 [3-15] |  | ≥ 80% | ≥ 80%
63 | CCS(=O)(=O)c1ccccc1-n1cc(-c2cncc(C(F)(F)F)c2)nn1 [3-45] |  | ≥ 80% | ≥ 80%
64 | CCSc1ccccc1-n1cc(-c2ccncc2)nn1 [4-10] |  | ≥ 80% | 
